Test results published in US10976310B2, “Ligand identification by co-fractionation” (MAX-PLANCK-GESELLSCHAFT ZUR FÖRDERUNG DER WISSENSCHAFTEN …, priority 2016, dated 2021).
At least one structure is not confirmed: it was looked up by name or label, or the drawing left a doubt.

Legend:
6×Histag peptide = assay: MST control with 6×Histag peptide; type: binding
MTR-1-P = target: T1, MTR-1-P (Arabidopsis thaliana, UniProt Q9ZUG4); assay: SEC co-elution of metabolite and protein (MTR-1-P); conditions: protein-containing SEC fractions
T1 construct: endogenous in cells; host or cells: Arabidopsis MM2d cell suspension culture
T1 sequence (Q9ZUG4 1-374): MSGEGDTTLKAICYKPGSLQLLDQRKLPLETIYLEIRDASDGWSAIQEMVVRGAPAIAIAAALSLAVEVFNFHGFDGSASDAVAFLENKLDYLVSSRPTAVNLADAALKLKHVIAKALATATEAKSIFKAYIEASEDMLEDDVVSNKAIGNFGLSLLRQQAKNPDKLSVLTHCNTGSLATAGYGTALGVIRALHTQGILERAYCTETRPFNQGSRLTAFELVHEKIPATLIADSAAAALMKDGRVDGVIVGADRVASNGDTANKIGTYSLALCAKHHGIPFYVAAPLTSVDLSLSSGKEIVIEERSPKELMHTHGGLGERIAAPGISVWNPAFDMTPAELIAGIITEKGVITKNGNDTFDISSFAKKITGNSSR

SMILES: CSC[C@H]1O[C@@H](n2cnc3c(N)ncnc32)[C@H](O)[C@@H]1O [MTA, Methylthioadenosine]
- binding to control 6×Histag peptide (in words) (6×Histag peptide): no binding was observed
- Pearson correlation r of co-elution with MTR-1-P (MTR-1-P): 0.75
